Results deposited as PubChem BioAssay AID504784 (Drosophila RNAi Screening Center, 2011).

Test: 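Search for regulators of lipid droplet storage in oleate-fed fly cells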 (primary screen)
Cell system: Drosophila Kc167 embryonic cells
Reagent: long dsRNA against Drosophila genes, about 250 ng dsRNA per well
Time to read-out: 4 days
Conditions: cells fed 400 µM oleic acid bound to BSA
Measured: 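Cells imaged and segmented; ratio of lipid droplet area to nuclear area, log-transformed, then normalised as a B-score over the screen; higher means more stored lipid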
Scale: droplet/nuclear area B-score: higher = more stored lipid (overstorage)
The deposit covers about 17,000 reagents; this is a random part of those that have a named target and a result. 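Each column is one replicate's B-score; the combined score over replicates was not deposited, so single values may mislead.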 Reagents against one gene are numbered here. Names joined by + are all predicted targets of the reagent. Not all columns of the deposit are shown.

predicted target	dsRNA no.	droplet/nuclear area B-score, replicate 1
Yeti	1	4.53
Tpc1	1	0.682
Tpc1	2	-0.42
CG5645	1	-1.2
CG34148 + P5CDh2	1	0.2
Best3	1	3.29
Grip75	1	-2.92
CG17283	1	-0.853
CG13564	1	-0.754
PIG-O	1	0.21
CG7294	1	0.124
RpL29	1	-2.18
Tcs6 + PIG-P	1	0.999
Tcs6 + PIG-P	2	-1.1
CG14346	1	0.00563
CG11125	1	-0.0128
hgo	1	0.137
Eogt	1	-1.89
CG10512	1	1.41
CG17154	1	-1.33
slgA	1	0.604
Lime	1	2.44
BomBc1	1	0.311
Lim3	1	0.0992
Lim3	2	4.52
Lim3	3	3.48
Lim3	4	-3.43
Lim3	5	0.176
PolI	1	0.257
CG7362	1	-0.445
CG11601	1	-0.86
CG2003	1	-0.393
CG18420	1	2.63
Rh4 + sina	1	-0.265

As entered above.
Under “droplet/nuclear area B-score, replicate 1”, Lim3 #4 shows -3.43
Rh4 + sina, droplet/nuclear area B-score, replicate 1 → -0.265
For “droplet/nuclear area B-score, replicate 1”, Lim3 #3 has 3.48
CG10512, droplet/nuclear area B-score, replicate 1 → 1.41
